Reference: article doi:10.1101/2025.10.09.681388 (bioRxiv, 2025)
No constants are given. Whether binding was seen depends on the method and setting. Sequences can lack the tags named with a protein.

Assays:
[1] = target: T1, Dvl2 (amino acids 390-536) (human) (UniProt O14641); assay: ELISA
T1 sequence: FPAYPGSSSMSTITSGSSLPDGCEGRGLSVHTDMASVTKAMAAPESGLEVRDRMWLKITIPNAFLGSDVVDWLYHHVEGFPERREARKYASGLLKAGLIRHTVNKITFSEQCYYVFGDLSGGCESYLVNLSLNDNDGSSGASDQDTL

[2] = target: T2, Dvl2 (amino acids 182-389) (human) (UniProt O14641); assay: ELISA
T2 sequence: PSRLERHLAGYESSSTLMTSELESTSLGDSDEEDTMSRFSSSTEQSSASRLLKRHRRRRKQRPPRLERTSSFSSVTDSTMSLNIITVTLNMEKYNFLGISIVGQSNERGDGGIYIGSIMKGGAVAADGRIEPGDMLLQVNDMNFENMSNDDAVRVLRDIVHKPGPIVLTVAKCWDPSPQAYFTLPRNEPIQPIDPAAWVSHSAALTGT

B1: GST-tagged profilin2 (natural protein, mouse, UniProt Q9JJV2 1-140, looked up)
chain: MAGWQSYVDNLMCDGCCQEAAIVGYCDAKYVWAATAGGVFQSITPVEIDMIVGKDREGFFTNGLTLGAKKCSVIRDSLYVDGDCTMDIRTKSQGGEPTYNVAVGRAGRVLVFVMGKEGVHGGGLNKKAYSMAKYLRDSGF
binding [1]: no binding | binding [2]: no binding
